# Measured values from the supplement of paper PMC6411743.
# By UniProt entry, the sequences of proteins in these tests, tags left out. Where a name states a change or a piece, a line headed by the entry shows the natural chain unless it says otherwise.
# UniProt P81877: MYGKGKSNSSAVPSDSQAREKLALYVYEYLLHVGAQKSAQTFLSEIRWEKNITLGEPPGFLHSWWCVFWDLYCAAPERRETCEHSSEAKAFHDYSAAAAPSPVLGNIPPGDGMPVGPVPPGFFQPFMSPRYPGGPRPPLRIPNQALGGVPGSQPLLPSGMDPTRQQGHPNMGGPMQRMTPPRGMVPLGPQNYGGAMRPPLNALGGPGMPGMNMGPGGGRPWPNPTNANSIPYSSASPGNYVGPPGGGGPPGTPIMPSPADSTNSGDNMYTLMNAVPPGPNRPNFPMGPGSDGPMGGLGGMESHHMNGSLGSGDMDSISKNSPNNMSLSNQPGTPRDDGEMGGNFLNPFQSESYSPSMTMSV
# UniProt Q86WJ1: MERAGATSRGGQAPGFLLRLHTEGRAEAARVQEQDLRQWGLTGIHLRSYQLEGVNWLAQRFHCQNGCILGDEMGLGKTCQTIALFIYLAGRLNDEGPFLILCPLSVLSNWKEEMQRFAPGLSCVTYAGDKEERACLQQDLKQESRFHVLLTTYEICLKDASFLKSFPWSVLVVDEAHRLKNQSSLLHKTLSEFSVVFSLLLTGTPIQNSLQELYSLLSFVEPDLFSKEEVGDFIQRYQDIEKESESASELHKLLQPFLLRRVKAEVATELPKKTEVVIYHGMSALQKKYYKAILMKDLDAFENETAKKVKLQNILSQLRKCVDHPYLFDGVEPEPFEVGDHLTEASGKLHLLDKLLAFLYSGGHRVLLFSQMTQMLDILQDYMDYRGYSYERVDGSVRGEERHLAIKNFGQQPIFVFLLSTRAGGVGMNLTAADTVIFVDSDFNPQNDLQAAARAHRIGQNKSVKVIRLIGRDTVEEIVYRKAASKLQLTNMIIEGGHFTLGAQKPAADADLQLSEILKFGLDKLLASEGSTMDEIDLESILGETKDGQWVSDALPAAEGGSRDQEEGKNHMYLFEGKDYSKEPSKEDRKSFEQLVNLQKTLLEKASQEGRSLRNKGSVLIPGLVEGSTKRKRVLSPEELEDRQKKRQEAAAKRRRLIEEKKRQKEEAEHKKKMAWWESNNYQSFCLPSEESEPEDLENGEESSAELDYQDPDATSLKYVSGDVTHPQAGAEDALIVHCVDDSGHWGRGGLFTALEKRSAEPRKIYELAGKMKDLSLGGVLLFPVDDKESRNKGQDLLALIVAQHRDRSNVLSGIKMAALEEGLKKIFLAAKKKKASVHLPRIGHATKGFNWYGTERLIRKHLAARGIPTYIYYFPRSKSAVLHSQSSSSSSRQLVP
# UniProt Q9UHJ6: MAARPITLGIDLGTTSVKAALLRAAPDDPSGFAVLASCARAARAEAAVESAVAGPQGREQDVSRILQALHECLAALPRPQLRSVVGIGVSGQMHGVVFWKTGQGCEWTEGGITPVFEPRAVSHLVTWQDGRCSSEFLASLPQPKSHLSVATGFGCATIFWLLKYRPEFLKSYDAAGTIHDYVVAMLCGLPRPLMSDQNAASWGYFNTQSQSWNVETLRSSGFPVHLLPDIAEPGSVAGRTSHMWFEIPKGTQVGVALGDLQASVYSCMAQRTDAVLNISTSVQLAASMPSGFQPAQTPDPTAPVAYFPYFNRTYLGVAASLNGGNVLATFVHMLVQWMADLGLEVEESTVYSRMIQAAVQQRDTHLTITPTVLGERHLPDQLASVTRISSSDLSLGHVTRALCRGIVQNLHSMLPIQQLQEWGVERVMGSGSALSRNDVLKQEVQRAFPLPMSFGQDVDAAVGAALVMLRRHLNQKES
# UniProt Q70IA6: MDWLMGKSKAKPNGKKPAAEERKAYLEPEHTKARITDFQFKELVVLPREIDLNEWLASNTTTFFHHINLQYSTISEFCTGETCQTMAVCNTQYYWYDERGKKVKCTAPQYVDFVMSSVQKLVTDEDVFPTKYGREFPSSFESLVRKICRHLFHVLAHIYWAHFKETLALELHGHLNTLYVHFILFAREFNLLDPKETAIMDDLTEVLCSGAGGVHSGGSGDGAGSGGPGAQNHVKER
# UniProt O43464: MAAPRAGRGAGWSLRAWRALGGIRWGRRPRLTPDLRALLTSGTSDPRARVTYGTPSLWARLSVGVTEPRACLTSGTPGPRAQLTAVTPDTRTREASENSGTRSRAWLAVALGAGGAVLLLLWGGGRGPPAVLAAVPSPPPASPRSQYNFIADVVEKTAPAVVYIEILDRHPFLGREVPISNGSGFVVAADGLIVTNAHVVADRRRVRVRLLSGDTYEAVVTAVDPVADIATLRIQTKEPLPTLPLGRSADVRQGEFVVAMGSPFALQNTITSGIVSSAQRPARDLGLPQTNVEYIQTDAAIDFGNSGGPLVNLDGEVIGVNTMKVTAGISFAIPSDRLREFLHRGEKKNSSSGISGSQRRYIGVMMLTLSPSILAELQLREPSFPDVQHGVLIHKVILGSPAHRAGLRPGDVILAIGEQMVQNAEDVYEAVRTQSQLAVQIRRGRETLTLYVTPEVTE
# UniProt Q5T8P6: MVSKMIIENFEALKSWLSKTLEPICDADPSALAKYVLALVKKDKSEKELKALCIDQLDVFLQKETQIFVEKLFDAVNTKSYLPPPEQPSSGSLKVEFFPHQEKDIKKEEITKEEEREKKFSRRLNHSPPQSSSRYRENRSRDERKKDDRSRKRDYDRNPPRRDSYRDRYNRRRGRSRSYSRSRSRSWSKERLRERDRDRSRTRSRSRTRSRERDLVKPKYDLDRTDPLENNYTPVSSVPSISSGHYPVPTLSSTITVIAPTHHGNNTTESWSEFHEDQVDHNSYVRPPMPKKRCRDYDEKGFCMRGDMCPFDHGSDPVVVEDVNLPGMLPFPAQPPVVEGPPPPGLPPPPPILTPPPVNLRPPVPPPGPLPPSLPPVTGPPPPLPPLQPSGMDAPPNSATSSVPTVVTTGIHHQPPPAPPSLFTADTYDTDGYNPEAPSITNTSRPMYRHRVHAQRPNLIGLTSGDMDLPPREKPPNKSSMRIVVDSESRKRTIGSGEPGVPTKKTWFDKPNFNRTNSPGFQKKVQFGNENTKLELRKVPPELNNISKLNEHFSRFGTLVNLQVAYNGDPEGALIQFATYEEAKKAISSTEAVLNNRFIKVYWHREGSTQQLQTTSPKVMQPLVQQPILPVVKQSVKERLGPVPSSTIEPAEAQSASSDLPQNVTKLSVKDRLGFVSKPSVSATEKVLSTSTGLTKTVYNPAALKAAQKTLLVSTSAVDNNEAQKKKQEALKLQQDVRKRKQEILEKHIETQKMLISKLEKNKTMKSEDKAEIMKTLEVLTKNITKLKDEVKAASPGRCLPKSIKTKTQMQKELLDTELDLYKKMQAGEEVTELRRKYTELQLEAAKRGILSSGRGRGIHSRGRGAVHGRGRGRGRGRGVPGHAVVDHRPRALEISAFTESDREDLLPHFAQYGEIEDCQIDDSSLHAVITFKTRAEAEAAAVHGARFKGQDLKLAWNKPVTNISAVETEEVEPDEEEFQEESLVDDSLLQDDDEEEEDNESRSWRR
# UniProt Q8TBC5: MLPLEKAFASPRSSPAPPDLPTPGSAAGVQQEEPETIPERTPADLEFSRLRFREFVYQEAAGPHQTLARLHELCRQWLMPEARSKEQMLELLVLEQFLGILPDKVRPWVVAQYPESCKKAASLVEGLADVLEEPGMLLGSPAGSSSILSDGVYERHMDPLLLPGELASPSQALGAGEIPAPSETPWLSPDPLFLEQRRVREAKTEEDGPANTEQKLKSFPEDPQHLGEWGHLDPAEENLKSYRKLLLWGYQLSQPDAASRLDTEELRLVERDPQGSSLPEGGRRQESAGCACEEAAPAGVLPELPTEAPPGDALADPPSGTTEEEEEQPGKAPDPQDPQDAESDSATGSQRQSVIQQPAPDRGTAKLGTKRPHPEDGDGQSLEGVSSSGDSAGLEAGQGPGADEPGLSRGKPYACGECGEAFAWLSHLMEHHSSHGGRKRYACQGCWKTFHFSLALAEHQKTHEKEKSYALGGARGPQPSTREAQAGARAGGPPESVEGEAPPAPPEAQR
# UniProt O15484: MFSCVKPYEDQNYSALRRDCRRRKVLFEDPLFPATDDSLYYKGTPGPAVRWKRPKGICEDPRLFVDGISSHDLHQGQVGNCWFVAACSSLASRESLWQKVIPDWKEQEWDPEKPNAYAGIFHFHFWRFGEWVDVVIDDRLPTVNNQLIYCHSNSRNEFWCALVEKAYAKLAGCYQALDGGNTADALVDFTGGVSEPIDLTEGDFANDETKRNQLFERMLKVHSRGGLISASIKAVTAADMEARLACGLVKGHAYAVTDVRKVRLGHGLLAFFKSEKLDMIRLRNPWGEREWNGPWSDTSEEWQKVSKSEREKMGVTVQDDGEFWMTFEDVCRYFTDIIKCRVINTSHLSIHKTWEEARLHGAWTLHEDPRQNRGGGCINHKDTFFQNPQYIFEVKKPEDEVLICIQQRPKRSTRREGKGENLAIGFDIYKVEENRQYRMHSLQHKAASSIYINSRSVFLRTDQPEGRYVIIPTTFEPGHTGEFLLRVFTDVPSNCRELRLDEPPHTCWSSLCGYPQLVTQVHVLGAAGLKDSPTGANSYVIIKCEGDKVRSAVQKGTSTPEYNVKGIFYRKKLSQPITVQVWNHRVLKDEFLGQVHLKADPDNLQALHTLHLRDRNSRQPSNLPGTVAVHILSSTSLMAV
# UniProt Q9NYM9: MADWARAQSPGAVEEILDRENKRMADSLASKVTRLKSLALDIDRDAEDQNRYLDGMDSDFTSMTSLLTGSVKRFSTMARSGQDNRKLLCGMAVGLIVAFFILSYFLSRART
# UniProt Q96T83: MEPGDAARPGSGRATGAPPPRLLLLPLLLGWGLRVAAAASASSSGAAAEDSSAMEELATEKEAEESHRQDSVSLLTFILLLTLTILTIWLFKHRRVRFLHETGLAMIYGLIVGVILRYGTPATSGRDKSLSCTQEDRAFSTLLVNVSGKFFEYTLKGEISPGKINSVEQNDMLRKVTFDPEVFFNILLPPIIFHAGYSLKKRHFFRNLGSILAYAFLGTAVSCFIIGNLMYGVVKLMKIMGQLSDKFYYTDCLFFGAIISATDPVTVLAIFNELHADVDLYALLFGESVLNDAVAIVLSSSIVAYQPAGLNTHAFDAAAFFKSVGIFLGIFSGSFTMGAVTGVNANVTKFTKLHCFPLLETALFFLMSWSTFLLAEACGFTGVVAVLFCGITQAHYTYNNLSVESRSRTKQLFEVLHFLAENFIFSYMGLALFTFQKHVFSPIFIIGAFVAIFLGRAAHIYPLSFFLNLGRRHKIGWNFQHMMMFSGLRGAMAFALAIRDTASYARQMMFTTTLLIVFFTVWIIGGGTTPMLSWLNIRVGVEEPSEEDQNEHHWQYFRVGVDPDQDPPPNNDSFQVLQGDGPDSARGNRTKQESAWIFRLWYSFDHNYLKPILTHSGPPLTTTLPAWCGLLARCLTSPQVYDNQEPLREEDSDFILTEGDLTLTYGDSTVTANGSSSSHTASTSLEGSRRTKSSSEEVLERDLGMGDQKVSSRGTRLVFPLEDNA
# UniProt Q8IWA4: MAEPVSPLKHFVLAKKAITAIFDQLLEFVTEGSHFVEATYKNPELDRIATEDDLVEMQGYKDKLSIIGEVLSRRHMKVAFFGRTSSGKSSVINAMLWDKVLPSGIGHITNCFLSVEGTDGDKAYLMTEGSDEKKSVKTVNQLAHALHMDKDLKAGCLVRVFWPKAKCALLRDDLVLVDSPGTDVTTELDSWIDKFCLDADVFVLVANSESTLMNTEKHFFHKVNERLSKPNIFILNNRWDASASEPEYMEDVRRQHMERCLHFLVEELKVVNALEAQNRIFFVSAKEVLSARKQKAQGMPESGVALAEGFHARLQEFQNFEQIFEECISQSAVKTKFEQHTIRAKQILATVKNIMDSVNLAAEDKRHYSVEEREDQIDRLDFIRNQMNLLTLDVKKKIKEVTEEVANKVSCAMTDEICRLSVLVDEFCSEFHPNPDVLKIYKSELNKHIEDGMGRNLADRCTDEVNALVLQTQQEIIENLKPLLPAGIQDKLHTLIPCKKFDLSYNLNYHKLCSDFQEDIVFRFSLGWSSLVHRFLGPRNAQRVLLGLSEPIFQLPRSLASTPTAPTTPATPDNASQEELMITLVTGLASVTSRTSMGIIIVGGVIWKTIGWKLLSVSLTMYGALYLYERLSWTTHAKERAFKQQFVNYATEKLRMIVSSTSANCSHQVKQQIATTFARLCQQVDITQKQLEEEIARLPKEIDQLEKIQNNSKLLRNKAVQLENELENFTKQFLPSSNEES
# UniProt Q9Y4X4: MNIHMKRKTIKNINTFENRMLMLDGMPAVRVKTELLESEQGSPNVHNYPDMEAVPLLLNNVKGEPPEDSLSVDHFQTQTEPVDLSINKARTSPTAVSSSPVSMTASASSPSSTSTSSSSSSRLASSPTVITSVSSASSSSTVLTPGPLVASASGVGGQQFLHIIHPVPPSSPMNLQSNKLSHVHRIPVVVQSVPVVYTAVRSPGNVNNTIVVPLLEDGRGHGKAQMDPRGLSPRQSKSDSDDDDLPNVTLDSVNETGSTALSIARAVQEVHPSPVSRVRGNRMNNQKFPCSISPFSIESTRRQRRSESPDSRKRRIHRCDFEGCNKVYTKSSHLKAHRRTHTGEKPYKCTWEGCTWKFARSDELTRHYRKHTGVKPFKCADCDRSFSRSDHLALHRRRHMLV
# ± gives the standard deviation of the averaged measurements. Only a part is listed here, and it is no random draw.
# Compound: Nc1ncnc2c1ncn2[C@@H]1O[C@H](COP(=O)(O)OP(=O)(O)OP(=O)(O)O)[C@@H](O)[C@H]1O [adenosine triphosphate]
# Test: NP40-soluble protein abundance relative to vehicle (solubility fold change) (ratio); higher = more soluble protein in presence of ATP
# Conditions: concentration: 1mM
# In short: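 Each value is a fold change relative to the detergent-processed vehicle, calculated per replicate from vsn-normalised intensities. Jurkat crude lysate received eight concentrations (0.1 to 10 mM) for 10 min at room temperature and 3 min at 37 °C, then was solubilised in 0.8% NP40 with benzonase (60 min, 4 °C). The ultracentrifuged supernatant was TMT-labelled and run by LC-MS/MS in three independent experiments.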
row,Target,NP40-soluble protein abundance
1,A0A087WYL7|G3V4A5 and related entries (UniProt O75586),0.981 ± 0.054
2,A0A087X020|Q9Y3A5 (UniProt Q9Y3A5),0.998 ± 0.056
3,A0A0D9SFE4|A0A0D9SFB1|A0A0U1RQP1|Q05193 and related entries (UniProt Q05193),0.978 ± 0.029
4,A0A0B4J2F8|A6NFM0 and related entries (UniProt Q9GZM3+Q9H1A7+P52435+F6S314+E2QRJ6+A6NFM0),0.9602 ± 0.0028
5,A0A087X159|P81877 and related entries (UniProt P81877),1.06 ± 0.16
6,A0A0A0MQW0|A0A0A0MR39 (UniProt Q9P2K5),1.05 ± 0.054
7,A0A087WUD1 (UniProt Q6DD87),0.968 ± 0.059
8,A0A087WTU9|A0A087WZY3|Q8TCU4 and related entries (UniProt Q8TCU4),1.48 ± 0.91
9,A0A0A0MSH9|Q86WJ1 and related entries (UniProt Q86WJ1),1.01 ± 0.021
10,A0A087WZ30|A0A087X072|O94761 (UniProt O94761),1.08 ± 0.27
11,A0A0A0MSJ9|Q15283 and related entries (UniProt Q15283),1.04 ± 0.083
12,A0A0B4J2A0|Q9UHJ6 (UniProt Q9UHJ6),1 ± 0.042
13,A0A087WVF4|O14646 and related entries (UniProt O14646),0.982 ± 0.03
14,A0A0D9SEI0|Q9P0P8 (UniProt Q9P0P8),0.889 ± 0.041
15,A0A0B4J1W3|Q9BXJ9 (UniProt Q9BXJ9),1.04 ± 0.049
16,A0A0C4DG17|C9J9K3 and related entries (UniProt P08865),0.921 ± 0.07
17,A0A0A0MRP6|B7ZLQ5 and related entries (UniProt P28370),1.11 ± 0.038
18,A0A087WVS8|Q70IA6 and related entries (UniProt Q70IA6),0.987 ± 0.019
19,A0A0C4DG44|O43464 and related entries (UniProt O43464),0.997 ± 0.037

# Reformatted: results already given
row	Target	NP40-soluble protein abundance
4	A0A0B4J2F8|A6NFM0 and related entries (UniProt Q9GZM3+Q9H1A7+P52435+F6S314+E2QRJ6+A6NFM0)	0.9602 ± 0.0028
9	A0A0A0MSH9|Q86WJ1 and related entries (UniProt Q86WJ1)	1.01 ± 0.021
12	A0A0B4J2A0|Q9UHJ6 (UniProt Q9UHJ6)	1 ± 0.042

# Further results follow:

row,Target,NP40-soluble protein abundance
1,A0A087X0H9|Q5T8P6 and related entries (UniProt Q5T8P6),1.19 ± 0.057
2,A0A087X0M0|Q7Z5L2 and related entries (UniProt Q7Z5L2),1.02 ± 0.036
3,A0A087WUB9|Q8WYA6 (UniProt Q8WYA6),0.998 ± 0.012
4,A0A088AWN8|Q9UHQ1 and related entries (UniProt Q9UHQ1),0.91 ± 0.066
5,A0A0C4DG78|M0R3C6 and related entries (UniProt Q8TBC5),0.959 ± 0.043
6,A0A0C4DGV5|O95218 and related entries (UniProt O95218),0.903 ± 0.061
7,A0A087X0C8|O15484 and related entries (UniProt O15484),1.027 ± 0.0097
8,A0A087WUS0|E7ETK0 and related entries (UniProt P62847),0.825 ± 0.05
9,A0A0B4J294|H3BP13 and related entries (UniProt Q9UL33),0.96 ± 0.024
10,A0A0C4DH16|B8ZZS0 and related entries (UniProt Q9NYM9),0.992 ± 0.054
11,A0A087WZE9|Q15651 (UniProt Q15651),1.07 ± 0.17
12,A0A0C4DGS1|P39656 (UniProt P39656),1.04 ± 0.12
13,A0A0C4DH01|Q9NVU0 and related entries (UniProt Q9NVU0),0.988 ± 0.095
14,A0A087WXD1|Q96T83 (UniProt Q96T83),0.967 ± 0.015
15,A0A0C4DFN1|Q8IWA4 (UniProt Q8IWA4),1 ± 0.025
16,A0A087WV81|I3L295 and related entries (UniProt Q9H3L2+O75352+Q1HDL3+J3QS48+I3L1D2+J3QW43+J3QRD5+J3KT75+I3L295),0.943 ± 0.01
17,A0A075B6T1|Q9C0C7 and related entries (UniProt Q9C0C7),0.932 ± 0.059
18,A0A0A0MRU8|Q9Y4X4 (UniProt Q9Y4X4),1.06 ± 0.24
